T1: Myc-EhAgo2-2^ΔNLS-DR (E. histolytica) (UniProt C4LVV2)
T1 sequence: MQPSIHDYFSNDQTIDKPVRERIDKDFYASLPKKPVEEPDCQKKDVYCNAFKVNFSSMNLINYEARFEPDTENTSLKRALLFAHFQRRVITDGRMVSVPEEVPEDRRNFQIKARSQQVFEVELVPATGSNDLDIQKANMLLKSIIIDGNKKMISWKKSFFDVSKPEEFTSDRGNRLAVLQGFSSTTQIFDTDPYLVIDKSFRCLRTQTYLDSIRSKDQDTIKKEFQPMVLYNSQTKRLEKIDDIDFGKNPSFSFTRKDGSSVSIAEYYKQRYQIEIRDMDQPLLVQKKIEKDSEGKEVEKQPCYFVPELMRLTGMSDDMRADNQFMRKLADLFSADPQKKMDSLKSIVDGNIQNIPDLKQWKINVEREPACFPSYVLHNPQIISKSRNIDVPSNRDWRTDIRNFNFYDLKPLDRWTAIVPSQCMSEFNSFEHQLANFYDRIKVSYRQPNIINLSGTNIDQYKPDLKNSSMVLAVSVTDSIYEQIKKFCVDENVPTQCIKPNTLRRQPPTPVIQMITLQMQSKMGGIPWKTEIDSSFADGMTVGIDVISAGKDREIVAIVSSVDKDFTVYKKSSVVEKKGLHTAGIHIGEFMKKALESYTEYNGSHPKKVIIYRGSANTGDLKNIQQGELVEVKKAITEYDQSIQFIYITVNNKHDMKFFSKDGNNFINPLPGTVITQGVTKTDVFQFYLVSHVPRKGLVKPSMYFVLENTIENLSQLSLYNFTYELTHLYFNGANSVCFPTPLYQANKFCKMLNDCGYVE

B1: URE3-BP (upstream regulatory element 3-binding protein) (protein, UniProt C4MBE2 1-227)
chain: MQFGYPPMQPPVANFCLWNLQPIQGSWMGAACIYQMPPSVRNTWWFPLLNTIPLDQYTRIYQWFMGVDRDRSGTLEINELMMGQFPGGIRLSPQTALRMMRIFDTDFNGHISFYEFMAMYKFMELAYNLFVMNDRNRSGTLEPHEILPALQQLGFYINQRTSLLLHRLFARGMAFCDLNCWIAICAFAAQTRSAYQMIFMNPYYGPMKPFNPMEFGKFLDVVTSLLE
B2: NAP07 (endogenous) (protein, UniProt C4M608 1-241)
chain: MSYQSSQLPEDESINRKLLQETNRSLKIAQAELTVKKVYKTMEYEKMMKILNERRKDVVVGLSDQKSEESQQSKPIKNDDVTSPKPQINNKGVPFFWIRALNAVSLFLSYNTVEEDLVALSYLNDIKITTLTPSFDMKSLTIKMGKELSFFFDKNPYFTNDHFTIRMIYRANENGERIGSTGRIKVITNGIDWKVNLLEINSSSFFNVFIQELVNEEDYEILDSVFDNFNTKAIQYFYQFN
B3: DNA repair protein (EHI_114930) (protein, UniProt C4M7S7 1-764)
chain: MKRSCAPSQKKLLSQKPLHQPKQQEENQKKNPKVLLKVITQEKKKIDIIKVFKIMWAKNSPKKQKTFNDGFIVVNSNNIGLIHDEEDKVIGKVNNIMKEISPETIGGDSIILAGKVIEIEEEVPVEQYLSGKLFLHETAITITQPKFELKKTALGNGPIKKKKVSLYNKENPFAYCIDDKKEPAILIDPYIGKFLRPHQIEGVKFMYHCIMRGGECGCILADEMGLGKTLQTITLIWTVYKQCNIKKIVIVCPQSLIGNWEKEFKKWLGVERISVQTGSSDSSMKEKVNDFIRDYIPVLIISYEQVRSHVETLKKTKIGLIVCDEGHRIKNLMSKTNSSLKALGGSRHIILSGTPVQNGLEDFYSLIEFCSPGCLGTLSSFKRVFAIPIQKAQDGNASIEEIQLGTERAKELTNKLNDYVLRRTSQVNEKYLPDKTEIVLFIKPSYLQIKLYKIMLKELEKKKLDQCSALKYIQLFTKLCNHPSLISKYLTEEKISLNENDEKCIKGISLNEESSNKFNITIQFIKEILIKSKEKVVLVSNYTKTLDLFEIYFKQEEEYKQKKIFNYLRLDGKTSQKQRDIIVEKINDKSSNYNILLLSSKAGGVGLNLIGCSRLILFDPDWNPAKDKQAMARIWRDGQQKKAMIYRMLCTGTIEEKIYQRQLQKNQISESIIEEHLEMGKSLSVEQLMKIFELNTNTICDTHDLLQCDCCNGGYKTEEDTLHLIPKMKEEIKSIDPLISTIEGINKMVSMLFVNEFHNKQKMK
B4: Tudor-like protein (endogenous) (protein, UniProt C4M0A8 1-861)
chain: MPAQNTQKKDLSKKVEKKPESEPKKEKKTFTAFVAKVKSNNSLTLSSKKDDKRSTVVLAYVDLPRYDAKEKKEEAFAYETNEILRKKLVTGKEVKFEVVSEHQGIPKAVVPFVRKENIVCTLIESGYASLKIKGKGKEFSQYFDAEQKAKDSHRGIFSEDMIKIAKKRPENIFFNEKEISELKGKTIQGHIKRVEAPSHYIIEDTNRRRFKVVLYGVNQMLRYNTEKDVFDFDDDAKDAMKYINRSFNQRDVTVKVIETSQRVAYAQLSVEKKDVAEELLRSGFVVCSKLENATEEIKQKYQAAEKEAKKEKKARWTEFDQAAEDAIIAKRQQRLKELEDRRKNAKIISGAEIIYIGNHIKAKKGNEEYNIHLASVRPVFKKNDKEFNDLVQFRIKECLRKLIVGKKFEAKECYKRSFTKEDKTIEEVFYDVYASGKNVAVTLIKEGLVVLEKTRDEFYQSFDYKLLSETPKGEYKEKVVTQYPAEKRESIKDVFLNNSFNCIVERVINVCKYVIYIPEKDCRMTVVLSHCRIPRDDENEELKKFNEESKAAVRALFGLNEVTVDFREFFKGNFCVDILSKKFDLCDLVLSKAYAQFSGRDIPENIAEMKENQEGIYKFAGAKKEGESKPVRPVKVVKEVHREIKFGEGKNVYITGFDGSMIYYYEKVADAKFIEELSNKLKKCNKGSVEQKDGQKCVVEIKGVQYRAIITKAVPTANVVKCIDTGAVIVCGKNKLKPLKEEYENIEVTVKSIALAGVKTLVRGKDVDFDAMINAVSSFFNKEATMFVATINDKEVAKVVVGDVCINNMLIEEGLSILDRFFNDNSDWGRAMTSAQSAAKDKHLNVWRYGEIDDDEEKDKH
B5: NAP12 (endogenous) (protein, UniProt C4M8H9 1-264)
chain: MSIHSIDKINKVILSKNIDEYIDIVGGEVNENLEELKKIDKEIGEKEIEYQLECLKLEQESEKDIQEILKIRRAIINGTKHRTNDGIQECGISNFWIEVFNEVGLMGNLEVTKEEIDILQSLIDIEKHIKEIKRNEGKEEIYINIHYTFLFKENQFLSNSIFEFELEHCINRYGIIIEETRNYIPLSHFKWKKQIKEKRMFDLLENGGKNLHCYLHEALNNIDFGAIDMFFGINTQNLFLDSFSVSDDENDCSVDDGCVDYATH
B6: enhancer binding protein-1 (endogenous) (protein, UniProt C4M5C4 1-306)
chain: MTTLYVSHLDYSLKVEDVQNAFKTYNPKEVKIISTPIGYSRGFAFIEFATPQEAEKALEMDRHTIGKMEIKVQKALPKEETTTERKMNRRGFKGKRNTRKRHLVKRTNEVTDNMLFIKNLPFAITEEKLKEMFSKFGVVEITLIKTHRKKGNVTKNNGIAFITVKTAEEQKKAIAEMNNFEVEGRKITVAAAYKKVENKQTTKKTNEPKSLSETNVFVKNLPFTLTDEGFKKLFEKYDVVEATIVKRHNKKLNVDRSKGYGFVTFKTAEQQKKAIAEMDNFEVEGRKITVTSAYQRAEKKEETTSN

Results are given in words; binding and its absence hold for the method and conditions named. In cells and extracts the contact can be indirect. A yes stands for co-enrichment or nearness to the bait. Other partners may have been found. No binding means not detected with the bait. Sequences can lack the tags named with a protein.

In article PMC8546589 one finds binding data, which are given here for eight molecules.

The first assay concerns the target T1, Myc-EhAgo2-2^ΔNLS-DR (E. histolytica). As to the kind of experiment: affinity purification with mass spectrometry; anti-c-Myc agarose IP from whole-cell lysate of E. histolytica lines overexpressing the Myc-tagged bait (EhAgo2-2 WT, its two mutants, EhRdRP1, EhRdRP2), 2 h at 4°C, six low-stringency washes; LC-MS/MS in triplicate; nonribosomal hits in at least 2 of 3 data sets, exclusive or ≥3-fold enriched against the Luc control.
elongation factor 1-alpha 1: the binding entry is on record as “no binding”.
On the same count and under the same terms, for Hsp70 the value was “no binding”.

The target is the same in the next assay. The assay is described as above. The source holds these as a separate data set.
For B1, the binding entry is reported as “no binding”.
Turning to B2, the binding entry is given as “binds”.
On the same count and under the same terms, for B3 the value was “no binding”.
The same measure, in the same setting: for B4 the value was “no binding”; for B5, “binds”.
Still for that read-out and setting: to B6 belongs “no binding”.
